Results reported in patent US6767993 (dated 2004).

Experiments:
[1] = general procedure: hybrid (solid and solution phase) peptide synthesis; FmocLeuOResin loaded at 1.02 mmol/g; HBTU/HOBT/DIEA (fragment couplings in solution); settings: whole synthesis
[2] = general procedure: hybrid (solid and solution phase) peptide synthesis; 2-chlorotrityl chloride resin (super acid sensitive); HBTU/HOBT/DIEA (fragment couplings in solution); settings: for step yield / final HPLC purity: purification step; for final HPLC purity / crude HPLC purity: 280 nm
[3] = general procedure: hybrid (solid and solution phase) peptide synthesis; FmocTrp(Boc)OR loaded at 0.75 mmol/g; HBTU/HOBT/DIEA (fragment couplings in solution); settings: whole synthesis

Row | Sequence | crude yield [1] [% yield] | step yield [2] [%] | final HPLC purity [2] [A %] | crude HPLC purity ([2]; whole synthesis) [A %] | crude yield [3] [% yield] | crude HPLC purity ([2]; whole synthesis, run 1) | crude HPLC purity ([2]; whole synthesis, run 2) | crude yield ([2]; whole synthesis, run 1) [%]
1 | EQAQIQQEKNEYEL | 60 | 72 | 95 | 85 |  |  |  | 
2 | QKLDKWASLWEW |  |  |  | 87.9 | 78 |  |  | 
3 | WQEWEQKITALL |  | 81 | 90 |  |  | 87A % and 83 Area % | 84 Area % (A %) | 90

Values joined by “and” are separate entries in the source; they are usually repeats but may differ in a detail not shown here. Equal values may be shown once. Plain letter strings leave the end groups untold.
